{"sequences": {"note": "By UniProt entry, the sequences of proteins in these tests, tags left out. Where a name states a change or a piece, a line headed by the entry shows the natural chain unless it says otherwise.", "UniProt O95239": "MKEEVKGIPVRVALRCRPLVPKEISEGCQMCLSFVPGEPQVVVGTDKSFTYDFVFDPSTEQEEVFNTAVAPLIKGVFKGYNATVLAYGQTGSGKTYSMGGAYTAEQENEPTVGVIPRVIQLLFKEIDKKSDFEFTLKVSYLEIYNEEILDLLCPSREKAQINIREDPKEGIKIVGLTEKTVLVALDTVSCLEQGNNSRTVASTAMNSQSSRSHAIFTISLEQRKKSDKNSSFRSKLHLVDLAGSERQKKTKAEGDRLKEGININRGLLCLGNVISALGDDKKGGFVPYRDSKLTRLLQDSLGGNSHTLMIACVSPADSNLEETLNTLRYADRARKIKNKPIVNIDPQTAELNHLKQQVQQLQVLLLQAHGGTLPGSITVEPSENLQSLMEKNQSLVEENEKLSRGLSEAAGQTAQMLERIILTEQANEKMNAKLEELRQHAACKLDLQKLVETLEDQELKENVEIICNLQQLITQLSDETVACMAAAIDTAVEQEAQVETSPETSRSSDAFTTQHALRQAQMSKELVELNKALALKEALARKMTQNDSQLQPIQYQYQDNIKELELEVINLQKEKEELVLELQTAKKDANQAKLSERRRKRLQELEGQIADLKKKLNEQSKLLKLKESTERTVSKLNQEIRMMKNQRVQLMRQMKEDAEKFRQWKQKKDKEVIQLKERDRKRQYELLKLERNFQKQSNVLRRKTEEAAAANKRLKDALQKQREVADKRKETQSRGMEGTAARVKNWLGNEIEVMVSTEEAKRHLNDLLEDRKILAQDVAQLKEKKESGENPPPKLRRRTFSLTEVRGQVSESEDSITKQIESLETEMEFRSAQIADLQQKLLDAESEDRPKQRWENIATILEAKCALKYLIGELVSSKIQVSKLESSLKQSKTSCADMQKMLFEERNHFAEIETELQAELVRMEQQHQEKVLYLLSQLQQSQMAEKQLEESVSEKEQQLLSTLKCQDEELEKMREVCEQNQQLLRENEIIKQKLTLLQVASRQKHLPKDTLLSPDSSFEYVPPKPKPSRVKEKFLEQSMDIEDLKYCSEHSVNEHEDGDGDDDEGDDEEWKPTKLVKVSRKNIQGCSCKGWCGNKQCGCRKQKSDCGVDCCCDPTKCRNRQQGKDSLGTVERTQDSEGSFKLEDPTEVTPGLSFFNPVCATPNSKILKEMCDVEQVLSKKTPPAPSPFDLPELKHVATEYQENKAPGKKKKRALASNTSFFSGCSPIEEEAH", "UniProt P62312": "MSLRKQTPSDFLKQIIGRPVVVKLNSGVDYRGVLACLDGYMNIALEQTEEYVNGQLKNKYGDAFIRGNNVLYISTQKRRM", "UniProt O75153": "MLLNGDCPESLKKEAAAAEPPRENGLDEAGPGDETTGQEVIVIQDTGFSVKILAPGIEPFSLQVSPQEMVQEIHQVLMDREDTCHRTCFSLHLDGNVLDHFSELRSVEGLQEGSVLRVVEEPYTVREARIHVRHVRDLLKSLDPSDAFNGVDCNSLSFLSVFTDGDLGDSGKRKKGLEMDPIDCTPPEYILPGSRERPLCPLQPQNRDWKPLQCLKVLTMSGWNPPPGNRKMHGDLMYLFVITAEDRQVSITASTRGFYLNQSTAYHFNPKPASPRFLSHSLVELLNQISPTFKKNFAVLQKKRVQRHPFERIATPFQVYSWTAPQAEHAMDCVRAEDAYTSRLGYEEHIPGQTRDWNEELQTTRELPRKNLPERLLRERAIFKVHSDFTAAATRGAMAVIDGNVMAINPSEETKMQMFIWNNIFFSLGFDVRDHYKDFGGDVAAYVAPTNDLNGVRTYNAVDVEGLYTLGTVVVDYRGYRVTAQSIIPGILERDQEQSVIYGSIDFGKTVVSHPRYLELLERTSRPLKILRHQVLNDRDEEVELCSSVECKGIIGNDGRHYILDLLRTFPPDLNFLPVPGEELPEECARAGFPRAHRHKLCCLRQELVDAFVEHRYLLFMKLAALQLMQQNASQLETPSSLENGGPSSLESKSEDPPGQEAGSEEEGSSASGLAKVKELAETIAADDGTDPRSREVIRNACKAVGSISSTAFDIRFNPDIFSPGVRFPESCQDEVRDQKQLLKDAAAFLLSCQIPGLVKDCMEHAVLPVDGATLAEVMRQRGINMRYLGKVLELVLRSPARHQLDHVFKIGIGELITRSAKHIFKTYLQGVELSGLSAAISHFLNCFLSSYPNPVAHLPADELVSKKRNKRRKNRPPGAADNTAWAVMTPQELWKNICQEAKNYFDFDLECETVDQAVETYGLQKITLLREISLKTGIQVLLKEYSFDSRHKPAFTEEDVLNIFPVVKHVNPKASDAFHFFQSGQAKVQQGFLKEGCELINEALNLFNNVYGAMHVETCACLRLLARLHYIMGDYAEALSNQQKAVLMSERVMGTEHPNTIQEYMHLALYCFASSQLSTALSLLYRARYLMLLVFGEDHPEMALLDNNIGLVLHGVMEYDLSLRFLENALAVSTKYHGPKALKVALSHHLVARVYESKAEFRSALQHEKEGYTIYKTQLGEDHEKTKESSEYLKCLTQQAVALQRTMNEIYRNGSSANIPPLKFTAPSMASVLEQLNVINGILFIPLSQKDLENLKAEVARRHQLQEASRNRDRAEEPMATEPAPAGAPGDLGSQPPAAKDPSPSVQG", "UniProt P61326, whole entry": "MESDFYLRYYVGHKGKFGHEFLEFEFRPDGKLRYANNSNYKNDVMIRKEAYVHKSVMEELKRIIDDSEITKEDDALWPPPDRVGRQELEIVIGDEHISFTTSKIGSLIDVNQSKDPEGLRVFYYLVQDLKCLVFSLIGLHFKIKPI", "UniProt Q8IVL6": "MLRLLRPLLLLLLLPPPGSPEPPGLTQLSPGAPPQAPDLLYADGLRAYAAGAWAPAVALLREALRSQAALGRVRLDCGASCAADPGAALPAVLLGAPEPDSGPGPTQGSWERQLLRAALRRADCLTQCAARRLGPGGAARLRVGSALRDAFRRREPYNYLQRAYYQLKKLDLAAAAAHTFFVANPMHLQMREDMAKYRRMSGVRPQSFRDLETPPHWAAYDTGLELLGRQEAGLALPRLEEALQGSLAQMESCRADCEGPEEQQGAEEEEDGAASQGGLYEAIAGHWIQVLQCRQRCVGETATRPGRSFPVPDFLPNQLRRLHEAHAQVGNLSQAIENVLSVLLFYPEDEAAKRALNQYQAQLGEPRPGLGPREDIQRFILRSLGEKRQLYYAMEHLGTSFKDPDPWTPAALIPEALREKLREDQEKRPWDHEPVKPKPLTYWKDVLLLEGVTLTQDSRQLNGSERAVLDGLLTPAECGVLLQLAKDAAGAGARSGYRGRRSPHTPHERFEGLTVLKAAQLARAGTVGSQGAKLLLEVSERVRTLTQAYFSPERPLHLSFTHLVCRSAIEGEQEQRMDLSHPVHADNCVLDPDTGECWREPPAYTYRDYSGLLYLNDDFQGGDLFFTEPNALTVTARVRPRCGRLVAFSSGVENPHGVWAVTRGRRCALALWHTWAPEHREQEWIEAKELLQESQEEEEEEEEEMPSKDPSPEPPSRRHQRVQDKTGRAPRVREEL", "UniProt Q96AT1": "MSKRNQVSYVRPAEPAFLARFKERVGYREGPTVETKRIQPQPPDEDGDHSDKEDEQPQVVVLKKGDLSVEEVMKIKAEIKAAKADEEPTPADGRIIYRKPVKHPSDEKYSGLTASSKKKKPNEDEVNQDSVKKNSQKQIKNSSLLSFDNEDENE", "UniProt O95777": "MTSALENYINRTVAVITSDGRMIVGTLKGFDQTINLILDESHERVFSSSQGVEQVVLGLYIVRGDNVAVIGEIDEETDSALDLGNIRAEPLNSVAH", "UniProt Q96GA3": "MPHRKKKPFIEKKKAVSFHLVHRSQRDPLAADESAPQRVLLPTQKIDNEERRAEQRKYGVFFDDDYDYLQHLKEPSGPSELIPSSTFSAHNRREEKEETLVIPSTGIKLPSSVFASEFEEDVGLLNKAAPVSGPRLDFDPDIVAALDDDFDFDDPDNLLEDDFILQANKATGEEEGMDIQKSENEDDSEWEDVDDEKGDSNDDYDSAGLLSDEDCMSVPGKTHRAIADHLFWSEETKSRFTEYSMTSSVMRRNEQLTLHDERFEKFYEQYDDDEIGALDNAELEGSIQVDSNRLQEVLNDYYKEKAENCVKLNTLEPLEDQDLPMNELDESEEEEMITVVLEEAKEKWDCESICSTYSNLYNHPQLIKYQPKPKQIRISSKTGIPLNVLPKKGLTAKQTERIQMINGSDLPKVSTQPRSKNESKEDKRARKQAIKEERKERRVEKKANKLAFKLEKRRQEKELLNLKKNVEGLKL", "UniProt O14910": "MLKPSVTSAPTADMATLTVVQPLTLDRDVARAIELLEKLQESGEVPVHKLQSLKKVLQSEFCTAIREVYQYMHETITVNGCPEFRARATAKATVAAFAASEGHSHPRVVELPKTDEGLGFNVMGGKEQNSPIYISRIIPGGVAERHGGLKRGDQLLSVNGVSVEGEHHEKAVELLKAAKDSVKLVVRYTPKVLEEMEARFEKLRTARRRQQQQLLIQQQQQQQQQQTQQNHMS", "UniProt P49641": "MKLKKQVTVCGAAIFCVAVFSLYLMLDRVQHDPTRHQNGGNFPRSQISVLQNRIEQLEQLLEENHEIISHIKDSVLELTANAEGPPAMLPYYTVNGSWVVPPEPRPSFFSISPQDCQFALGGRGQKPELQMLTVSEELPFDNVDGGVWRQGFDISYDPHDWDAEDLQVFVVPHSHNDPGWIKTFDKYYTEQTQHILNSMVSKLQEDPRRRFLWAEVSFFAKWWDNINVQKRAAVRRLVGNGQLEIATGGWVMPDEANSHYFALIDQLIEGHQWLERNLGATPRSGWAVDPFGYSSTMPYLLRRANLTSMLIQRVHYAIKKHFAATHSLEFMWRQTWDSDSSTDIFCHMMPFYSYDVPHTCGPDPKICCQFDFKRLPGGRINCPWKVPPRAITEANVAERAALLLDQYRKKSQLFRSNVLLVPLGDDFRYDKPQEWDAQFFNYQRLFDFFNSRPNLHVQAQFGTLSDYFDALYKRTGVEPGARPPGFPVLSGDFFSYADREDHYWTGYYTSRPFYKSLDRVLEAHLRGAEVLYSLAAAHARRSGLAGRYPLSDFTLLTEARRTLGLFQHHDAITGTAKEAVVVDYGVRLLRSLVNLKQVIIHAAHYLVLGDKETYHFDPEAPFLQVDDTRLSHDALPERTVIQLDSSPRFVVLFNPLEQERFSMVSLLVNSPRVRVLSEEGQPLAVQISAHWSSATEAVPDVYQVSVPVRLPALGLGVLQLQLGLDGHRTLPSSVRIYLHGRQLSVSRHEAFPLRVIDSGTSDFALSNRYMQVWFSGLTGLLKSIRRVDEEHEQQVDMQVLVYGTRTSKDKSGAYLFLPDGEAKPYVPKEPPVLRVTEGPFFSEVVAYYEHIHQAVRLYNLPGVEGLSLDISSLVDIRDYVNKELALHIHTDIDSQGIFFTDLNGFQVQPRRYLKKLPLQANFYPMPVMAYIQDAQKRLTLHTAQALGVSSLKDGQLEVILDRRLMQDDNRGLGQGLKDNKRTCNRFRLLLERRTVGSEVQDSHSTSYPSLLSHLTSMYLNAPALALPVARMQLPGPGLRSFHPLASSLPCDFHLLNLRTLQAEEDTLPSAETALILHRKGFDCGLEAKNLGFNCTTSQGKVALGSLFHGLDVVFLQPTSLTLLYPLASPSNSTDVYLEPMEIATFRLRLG", "UniProt Q9NR34": "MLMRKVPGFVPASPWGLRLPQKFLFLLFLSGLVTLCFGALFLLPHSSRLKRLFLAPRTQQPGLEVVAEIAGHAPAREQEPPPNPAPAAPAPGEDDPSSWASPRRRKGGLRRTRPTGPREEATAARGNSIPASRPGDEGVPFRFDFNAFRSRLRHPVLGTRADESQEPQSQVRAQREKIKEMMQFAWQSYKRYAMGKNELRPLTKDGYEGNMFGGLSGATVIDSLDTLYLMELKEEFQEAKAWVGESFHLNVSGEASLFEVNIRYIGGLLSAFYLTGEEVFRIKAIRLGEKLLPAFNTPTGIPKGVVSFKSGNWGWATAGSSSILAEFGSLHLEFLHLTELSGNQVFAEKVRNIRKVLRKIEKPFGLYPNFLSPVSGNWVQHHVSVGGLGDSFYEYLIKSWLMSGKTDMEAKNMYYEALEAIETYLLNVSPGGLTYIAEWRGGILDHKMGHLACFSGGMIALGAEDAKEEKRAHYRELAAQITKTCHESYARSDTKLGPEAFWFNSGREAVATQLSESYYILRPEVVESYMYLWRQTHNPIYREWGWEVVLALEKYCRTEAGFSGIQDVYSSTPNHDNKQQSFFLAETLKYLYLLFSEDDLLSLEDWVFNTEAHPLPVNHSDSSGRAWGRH", "UniProt Q13257, whole entry": "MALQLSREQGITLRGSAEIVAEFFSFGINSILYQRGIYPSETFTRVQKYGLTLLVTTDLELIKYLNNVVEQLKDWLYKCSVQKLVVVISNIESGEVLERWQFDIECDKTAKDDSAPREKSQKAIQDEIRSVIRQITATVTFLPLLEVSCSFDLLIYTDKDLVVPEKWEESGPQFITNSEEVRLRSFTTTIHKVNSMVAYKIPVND", "UniProt Q9Y4Z0": "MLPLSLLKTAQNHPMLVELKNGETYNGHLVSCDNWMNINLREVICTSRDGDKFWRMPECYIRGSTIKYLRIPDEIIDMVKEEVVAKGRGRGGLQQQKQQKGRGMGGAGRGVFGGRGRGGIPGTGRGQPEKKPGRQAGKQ"}, "source": "the supplement of paper PMC7666118", "note": "The other results are listed elsewhere or left out.", "data": [{"compound": "COc1ccc(Cn2ccc3ccc(C(=O)NO)cc32)cc1", "test": "dose-dependent thermal stabilisation call (2D-TPP, DLPTP, 10% FDR) (binary (1 = stabilised)); higher = stabilised by the compound", "details": "system: HL-60 intact cells; concentration range 0.04-10 µM", "values": [{"target": "KIF21A (UniProt Q7Z4S6)", "dose-dependent thermal stabilisation call": "inactive: 0"}, {"target": "KIF1B (UniProt O60333)", "dose-dependent thermal stabilisation call": "inactive: 0"}, {"target": "KIF4A (UniProt O95239)", "dose-dependent thermal stabilisation call": "inactive: 0"}, {"target": "LSM6 (UniProt P62312)", "dose-dependent thermal stabilisation call": "inactive: 0"}, {"target": "KIAA0664 (UniProt O75153)", "dose-dependent thermal stabilisation call": "inactive: 0"}, {"target": "LOC284889", "dose-dependent thermal stabilisation call": "inactive: 0"}, {"target": "KIF3B (UniProt O15066)", "dose-dependent thermal stabilisation call": "inactive: 0"}, {"target": "MAGOH (UniProt P61326)", "dose-dependent thermal stabilisation call": "inactive: 0"}, {"target": "LCMT1 (UniProt Q9UIC8)", "dose-dependent thermal stabilisation call": "inactive: 0"}, {"target": "LEPREL2 (UniProt Q8IVL6)", "dose-dependent thermal stabilisation call": "inactive: 0"}, {"target": "LOC389203", "dose-dependent thermal stabilisation call": "inactive: 0"}, {"target": "LOC647000", "dose-dependent thermal stabilisation call": "inactive: 0"}, {"target": "KIAA1143 (UniProt Q96AT1)", "dose-dependent thermal stabilisation call": "inactive: 0"}, {"target": "LSM8 (UniProt O95777)", "dose-dependent thermal stabilisation call": "inactive: 0"}, {"target": "LONP2 (UniProt Q86WA8)", "dose-dependent thermal stabilisation call": "inactive: 0"}, {"target": "LDB1 (UniProt Q86U70)", "dose-dependent thermal stabilisation call": "inactive: 0"}, {"target": "LRRC14 (UniProt Q15048)", "dose-dependent thermal stabilisation call": "inactive: 0"}, {"target": "LOC100133916", "dose-dependent thermal stabilisation call": "inactive: 0"}, {"target": "LRBA (UniProt P50851)", "dose-dependent thermal stabilisation call": "inactive: 0"}, {"target": "LTV1 (UniProt Q96GA3)", "dose-dependent thermal stabilisation call": "inactive: 0"}, {"target": "LDHA (UniProt P00338)", "dose-dependent thermal stabilisation call": "inactive: 0"}, {"target": "LOC100130633", "dose-dependent thermal stabilisation call": "inactive: 0"}, {"target": "LRRC47 (UniProt Q8N1G4)", "dose-dependent thermal stabilisation call": "inactive: 0"}, {"target": "LIN7A (UniProt O14910)", "dose-dependent thermal stabilisation call": "inactive: 0"}, {"target": "MAN2A2 (UniProt P49641)", "dose-dependent thermal stabilisation call": "inactive: 0"}, {"target": "KIAA1598 (UniProt A0MZ66)", "dose-dependent thermal stabilisation call": "inactive: 0"}, {"target": "LPGAT1 (UniProt Q92604)", "dose-dependent thermal stabilisation call": "inactive: 0"}, {"target": "MAK16 (UniProt Q9BXY0)", "dose-dependent thermal stabilisation call": "inactive: 0"}, {"target": "LTF (UniProt P02788)", "dose-dependent thermal stabilisation call": "inactive: 0"}, {"target": "LOC203547", "dose-dependent thermal stabilisation call": "inactive: 0"}, {"target": "KIF2A (UniProt O00139)", "dose-dependent thermal stabilisation call": "inactive: 0"}, {"target": "MAN1C1 (UniProt Q9NR34)", "dose-dependent thermal stabilisation call": "inactive: 0"}, {"target": "MAD2L1 (UniProt Q13257)", "dose-dependent thermal stabilisation call": "inactive: 0"}, {"target": "LOC283951", "dose-dependent thermal stabilisation call": "inactive: 0"}, {"target": "KIAA0746 (UniProt Q68CR1)", "dose-dependent thermal stabilisation call": "inactive: 0"}, {"target": "LSD1 (UniProt O60341)", "dose-dependent thermal stabilisation call": "inactive: 0"}, {"target": "LSM4 (UniProt Q9Y4Z0)", "dose-dependent thermal stabilisation call": "inactive: 0"}]}]}
